In publication PMC10063565:
These are yes or no findings as the source states them, for the method shown. Binding seen in cells or lysates may run through a third protein. A yes stands for co-enrichment or nearness to the bait. Other partners may have been found. Sequences can lack the tags named with a protein.

Biological target: CTF derived from full-length 3FLAG-PC1-3HA
Test: affinity purification with mass spectrometry; crude mitochondrial fraction (mitochondria and MAMs) of Pkd1F/H-BAC vs WT mouse kidneys, crosslinked with 3 mM DTSSP, resuspended in PBS + 1% SDS, anti-HA magnetic beads, washes in TENT buffer, LC-MS/MS

B1: Nicotinamide Nucleotide Transhydrogenase (NNT) (enzyme, UniProt Q61941 44-1086)
chain: CKSPVKPGIPYKQLTVGVPKEIFQNEKRVALSPAGVQALVKQGFNVVVESGAGEASKFPDDLYRAAGAQIQGMKEVLASDLVVKVRAPMVNPTLGAHEADFLKPSGTLISFIYPAQNPDLLNKLSERKTTVLAMDQVPRVTIAQGYDALSSMANISGYKAVVLAANHFGRFFTGQITAAGKVPPAKILIVGGGVAGLASAGAAKSMGAVVRGFDTRAAALEQFKSLGAEPLEVDLKESGEGQGGYAKEMSKEFIEAEMKLFAQQCKEVDILISTALIPGKKAPVLFSKEMIESMKEGSVVVDLAAEAGGNFETTKPGELYVHKGITHIGYTDLPSRMATQASTLYSNNITKLLKAISPDKDNFHFEVKDDFDFGTMSHVIRGTVVMKDGKVIFPAPTPKNIPEEAPVKPKTVAELEAEKAGTVSMYTKTLTTASVYSAGLTGMLGLGIVAPNVAFSQMVTTFGLAGIIGYHTVWGVTPALHSPLMSVTNAISGLTAVGGLALMGGHFYPSTTSQSLAALATFISSVNIAGGFLVTQRMLDMFKRPTDPPEYNYLYLLPGGTFVGGYLAALYGGYNIEEIMYLGSGLCCVGALGGLSTQGTARLGNALGMIGVAGGLAATLGGLKPDPQLLAQMSGAMAMGGTIGLTIAKRIQISDLPQLVAAFHSLVGLAAVLTCMAEYIVEYPHFAMDATSNFTKIVAYLGTYIGGVTFSGSLVAYGKLQGILKSAPLLLPGRHALNAGLLAASVGGIIPFMADPSFTTGITCLGSVSGLSTLMGVTLTAAIGGADMPVVITVLNSYSGWALCAEGFLLNNNLLTIVGALIGSSGAILSYIMCVAMNRSLANVILGGYGTTSTAGGKPMEISGTHTEINLDNAVEMIREANSIVITPGYGLCAAKAQYPIADLVKMLTEQGKKVRFGIHPVAGRMPGQLNVLLAEAGVPYDIVLEMDEINSDFPDTDLVLVIGANDTVNSAAQEDPNSIIAGMPVLEVWKSKQVIVMKRSLGVGYAAVDNPIFYKPNTAMLLGDAKKTCDALQAKVRESYQK
  binding: binds

B2: glucosidase II α-subunit (Ganab) (enzyme, UniProt Q8BHN3 33-944)
chain: VDRSNFKTCDESSFCKRQRSIRPGLSPYRALLDTLQLGPDALTVHLIHEVTKVLLVLELQGLQKNMTRIRIDELEPRRPRYRVPDVLVADPPTARLSVSGRDDNSVELTVAEGPYKIILTAQPFRLDLLEDRSLLLSVNARGLMAFEHQRAPRVPQESKDPAEGNGAQPEATPGDGDKPEETQEKAEKDEPGAWEETFKTHSDSKPYGPTSVGLDFSLPGMEHVYGIPEHADSLRLKVTEGGEPYRLYNLDVFQYELNNPMALYGSVPVLLAHSFHRDLGIFWLNAAETWVDISSNTAGKTLFGKMLDYLQGSGETPQTDIRWMSESGIIDVFLMLGPSVFDVFRQYASLTGTQALPPLFSLGYHQSRWNYRDEADVLEVDQGFDDHNMPCDVIWLDIEHADGKRYFTWDPTRFPQPLNMLEHLASKRRKLVAIVDPHIKVDSGYRVHEELRNHGLYVKTRDGSDYEGWCWPGSASYPDFTNPRMRAWWSNMFSFDNYEGSAPNLYVWNDMNEPSVFNGPEVTMLKDAVHYGGWEHRDIHNIYGLYVHMATADGLIQRSGGIERPFVLSRAFFSGSQRFGAVWTGDNTAEWDHLKISIPMCLSLALVGLSFCGADVGGFFKNPEPELLVRWYQMGAYQPFFRAHAHLDTGRREPWLLASQYQDAIRDALFQRYSLLPFWYTLFYQAHKEGFPVMRPLWVQYPEDMSTFSIEDQFMLGDALLIHPVSDAGAHGVQVYLPGQEEVWYDIQSYQKHHGPQTLYLPVTLSSIPVFQRGGTIVPRWMRVRRSSDCMKDDPITLFVALSPQGTAQGELFLDDGHTFNYQTRHEFLLRRFSFSGSTLVSSSADPKGHLETPIWIERVVIMGAGKPAAVVLQTKGSPESRLSFQHDPETSVLILRKPGVSVASDWSIHLR
  binding: binds
